Source: PubChem BioAssay AID1487 (National Center for Advancing Translational Sciences (NCATS), 2009)
About 25 (0.01%) of roughly 200,000 compounds were called active. The shares of active, inactive and inconclusive entries below differ from those in the screen. Calls follow the shape of the dose curve; as a rule, active = well fitted inhibition curve with a large enough effect in the signal ratio, with a control signal flat (not every such curve was filed as active); inconclusive = small, poorly fitted or top-dose-only effect, or effect the other way, or a change in a side signal; inactive = flat fitted curve, though single readings scatter; the % refers to the signal ratio. A potency beside an inconclusive call is a rough fit, not a confirmed value.

assay: qHTS Assay for Modulators of Lamin A Splicing; conditions: HeLa LMNA splicing GFP/RFP minigene ratio, 48 h; ratio change, negative = inhibition: at 46.1 µM (top of the series) unless noted
In short: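 Read-out is the ratio of GFP to DsRed2 object intensity, acquired by 488 nm laser-scanning cytometry on HeLa lamin A-EGFP minigene reporter cells. Compound incubation 48 hrs at 37 °C in Opti-MEM with 2% FBS; DMSO 0.5% final.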
% is scaled to controls: 0 for no effect and ±100 for the full control effect; potency is read from the fitted curve at half-maximal effect.

Row | Structure (SMILES) | ratio change, negative = inhibition | Potency
1 | CCOC(=O)c1nn(-c2ccccc2)c(=O)cc1SC(C)C | inconclusive: 9.18% | 
2 | O=C(C1CCCN(S(=O)(=O)c2cccc3cccnc23)C1)N1CCN(c2ccc(F)cc2)CC1 (configuration not stated) | inactive | 
3 | CCCOC(=O)c1ccc(NC(=O)C2C3CCC(C3)C2C(=O)O)cc1 (configuration not stated) | inconclusive: -4.22% | 
4 | CC(Sc1nc(N2CCCCC2)c2c(c1C#N)CCCC2)C(=O)O (configuration not stated) | inactive | 
5 | CCCCC[n+]1ccn(-c2nc3ccccc3nc2[N-]S(=O)(=O)c2ccc(C)cc2)c1 | inactive | 
6 | COc1ccccc1C(=O)NC1CCN(C(=S)NCCc2ccccc2)CC1 | inactive | 
7 | CCCCN(c1ccccc1)S(=O)(=O)N(C)C | inconclusive: 16.4% [at 46 µM] | 
8 | O=C(NCCOCCOCCNC(=O)c1ccccc1)c1ccccc1 | inconclusive: -7.23% [at 46 µM] | 
9 | CCOc1cc(N2CCOCC2)c(OCC)cc1NC(=O)CC12CC3CC(CC(C3)C1)C2 | inconclusive: 4.86% | 
10 | S=C(NCc1cccs1)Nc1ccccc1 | inconclusive: -14.2% | 
11 | NC(=O)c1ccccc1NC(=O)C1CCCN(c2ncnc3onc(-c4ccc(F)cc4)c23)C1 (configuration not stated) |  | inconclusive: 11.2 µM [inhibitor, single point]
12 | O=C(Cc1ccc(S(=O)(=O)N2CCCCC2)s1)Nc1ccc(F)c(F)c1 | inconclusive: -41.9% | 
13 | COc1ccc(NC(C)=O)cc1NC(C)c1nc2sc(C)c(C)c2c(=O)[nH]1 (configuration not stated) | inconclusive: -14.3% [at 46 µM] | 
14 | COc1cccc(C(=O)Nc2ccc(NC(C)=O)cc2)c1 | inactive | 
15 | CCC(C)(c1ccc(C(=O)OC)s1)c1ccc(C(=O)OC)s1 | inconclusive: 20.1% | 
16 | COc1ccc(N2CCN(C(=O)CSc3n[nH]c(-c4ccccc4)n3)CC2)cc1 | inconclusive: -0.203% [at 46 µM] | 
17 | O=C(Nc1ccc(-c2nc3cc(NC(=O)c4ccccc4Cl)ccc3o2)cc1)c1ccccc1Cl | inconclusive: 5.84% [at 46 µM] | 
18 | Cc1ccc(CCNC(=O)CCN2N=C(c3ccc(C)cc3)CCC2=O)cc1 | inconclusive: 17.4% [at 46 µM] | 
19 | O=C(Nc1ccc(N2CCOCC2)nc1)c1cccs1 |  | inconclusive: 2 µM [activator, partial curve]
20 | CC(=O)Oc1ccccc1N(C(C)=O)S(=O)(=O)c1cccc([N+](=O)[O-])c1 | inconclusive: -0.435% [at 46 µM] | 
21 | CCCCCCCC(=O)NC(Nc1ccccc1OC)C(Cl)(Cl)Cl (configuration not stated) | inconclusive: 10% | 
22 | COc1cccc(CNC(=O)C2CCN(C(=O)N3CCOc4ccc(Cl)cc43)CC2)c1OC | inconclusive: -20.8% [at 46 µM] | 
